At least one structure is not confirmed: it was looked up by name or label, or the drawing left a doubt.
Tested on: intracranial GBM xenografts
Test: Human-rodent GBM xenograft models of Akt subgroups, survival under therapy
Assay type: in vivo, mice
Settings: p<0.05

**Q.** With Cn1nnc2c(C(N)=O)ncn2c1=O [temozolomide] as the compound, how does the “xenograft drug sensitivity (mean survival)” value (Xenograft group 2 vs. group 4, TMZ alone) read?
**A.** Its value is “more sensitive”.

**Q.** What about the “xenograft drug sensitivity (mean survival)” value (Xenograft group 2 vs. group 4, temozolomide plus radiation (TMZ+RT)) of the same compound?
**A.** The value was “more sensitive”.

From US10731221B2, “Diagnosing IDH1 related subgroups and treatment of cancer” (Dignity Health, priority 2009, dated 2020)
